Data: patent publication US20200171022A1, “FLT3 INHIBITORS FOR IMPROVING PAIN TREATMENTS BY OPIOIDS” (INSERM (Institut National de la Santé et da la Recherche …, priority 2017, published 2020)

Test system: Male Sprague-Dawley rats
Experiment: Potentiation of morphine-induced analgesia and morphine-dose sparing, paw pressure test (Example 4)

## CN1CC[C@]23c4c5ccc(O)c4O[C@H]2[C@@H](O)C=C[C@H]3[C@H]1C5 [morphine]
Rattus norvegicus, read-out: ED50 of morphine (dose-response in AUC) with BDT001
  ED50: 1.56 mg/kg
Morphine alone s.c.
  ED50 of morphine (dose-response in AUC) without BDT001: 1.11 mg/kg
